# PubChem BioAssay AID504327 (National Center for Advancing Translational Sciences (NCATS), 2011)
# Amino acid sequences for entries named in this document (tags omitted).
# UniProt Q92830, whole entry, looked up: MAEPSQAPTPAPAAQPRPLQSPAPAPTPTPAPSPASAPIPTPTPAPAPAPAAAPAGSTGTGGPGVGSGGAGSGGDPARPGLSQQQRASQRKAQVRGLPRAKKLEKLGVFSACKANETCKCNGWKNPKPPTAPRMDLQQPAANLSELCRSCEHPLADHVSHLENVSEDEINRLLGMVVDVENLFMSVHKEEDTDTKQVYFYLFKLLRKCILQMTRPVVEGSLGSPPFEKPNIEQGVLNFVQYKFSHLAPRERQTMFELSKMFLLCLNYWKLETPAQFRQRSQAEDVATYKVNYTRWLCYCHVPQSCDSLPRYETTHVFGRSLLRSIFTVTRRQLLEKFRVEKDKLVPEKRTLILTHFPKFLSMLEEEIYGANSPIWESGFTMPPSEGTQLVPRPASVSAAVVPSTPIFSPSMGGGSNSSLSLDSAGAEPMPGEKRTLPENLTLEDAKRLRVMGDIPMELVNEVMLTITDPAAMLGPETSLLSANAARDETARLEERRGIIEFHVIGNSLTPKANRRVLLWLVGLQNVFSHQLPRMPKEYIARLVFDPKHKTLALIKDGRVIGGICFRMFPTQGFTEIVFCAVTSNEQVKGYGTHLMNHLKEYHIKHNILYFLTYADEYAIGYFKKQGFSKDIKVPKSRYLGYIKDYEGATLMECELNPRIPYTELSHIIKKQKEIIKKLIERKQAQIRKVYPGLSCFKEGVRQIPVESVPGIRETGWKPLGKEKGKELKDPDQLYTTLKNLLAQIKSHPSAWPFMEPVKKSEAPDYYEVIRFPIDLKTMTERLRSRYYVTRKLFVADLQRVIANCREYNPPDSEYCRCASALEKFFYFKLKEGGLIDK
# Screen size: about 390,000 compounds; about 820 (0.21%) were called active. This list was built around the results that the source calls inconclusive (neither active nor inactive); the mix of calls is not that of the screen. Calls follow the shape of the dose curve; as a rule, active = well fitted inhibition curve with a large enough effect; inconclusive = small, poorly fitted or top-dose-only effect, or another doubt; inactive = no such curve, though single readings can be large or run the other way. Potencies of inconclusive entries are doubtful fits and often do not repeat.
# Molecular target: Histone acetyltransferase KAT2A (Homo sapiens) (UniProt Q92830)
# Assay: qHTS Assay for Inhibitors of GCN5L2
# Conditions: GCN5L2 HAT assay, ThioGlo1 CoA-SH fluorescence; activity change, negative = inhibition: at 58.9 µM (top of the series) unless noted
# Outline: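 Titration-based screen in which CoA formation is detected via maleimide probe ThioGlo1 (50uM) turning fluorescent on thiol reaction; substrates H3(1-25) 75uM and acetyl-CoA 70uM, GCN5L2 20nM, 20 min incubation at room temperature.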
# % is scaled to controls: 0 for no effect and ±100 for the full control effect; potency is read from the fitted curve at half-maximal effect.
Structure (SMILES),"activity change, negative = inhibition",Potency
O=C(/C=C/c1ccco1)Nc1ccc2c(c1)OCO2,inactive: -6.64%,–
CCOc1ccc(OCC)c(NC(=O)CN2CCN(c3cccc(C)c3C)CC2)c1,inactive: 1.26%,–
CCCCn1c(=O)n(-c2cc(OC)ccc2OC)c(=O)c2c3c(sc21)CN(C(C)=O)CC3,inactive: -1.33%,–
Cc1nc2cnc(N3CCN(C)CC3)nc2n(C[C@H]2CCCO2)c1=O,inactive: -20.2%,–
COc1ccc2oc(C(=O)Nc3ccccn3)c(C)c2c1,–,"inconclusive: 5.01 µM [inhibitor, full curve, poor fit]"
Cc1cccc(NS(=O)(=O)c2cc3c(cc2C)NC(=O)CO3)c1,–,"inconclusive: 39.8 µM [inhibitor, partial curve, poor fit]"
CCc1noc(C)c1C(=O)N(C)CC(=O)Nc1ccc(F)c(F)c1F,–,"inconclusive: 8.91 µM [inhibitor, partial curve]"
Cc1cccc(C)c1NC(=O)Cn1c(=O)n(CCC(=O)NCc2ccco2)c(=O)c2sccc21,–,"inconclusive: 0.794 µM [inhibitor, single point]"
Cc1ccc(NC(=O)C(=O)NCC(c2cccnc2)N2CCN(Cc3ccccc3)CC2)cc1F (stereo unspecified),inactive: -6.98%,–
CC(=O)c1ccc(OCc2cc(C(=O)N(C)Cc3ccccn3)no2)cc1,–,"inconclusive: 0.1 µM [inhibitor, full curve, poor fit]"
O=C(O)c1sc2cccc(Cl)c2c1Cl,inactive: 1.19%,–
Cn1c(C(=O)Nc2ccccc2)cc2sccc21,–,"inconclusive: 25.1 µM [inhibitor, single point]"
COc1ccc(OC)c(NC(=O)CC(Cc2ccccc2OC)C(=O)O)c1 (stereo unspecified),–,"inconclusive: 6.31 µM [inhibitor, single point]"
CC(=O)OCCn1c2nc(=O)[nH]c(=O)c-2nc2cc(C)c(C)cc21,–,"inconclusive: 39.8 µM [inhibitor, single point]"
Cc1ccc(-c2nnc(SCC(=O)N/N=C/c3ccccc3C(=O)O)n2-c2ccc(Cl)cc2)cc1,–,"inconclusive: 28.2 µM [inhibitor, single point]"
Cc1ccccc1C1CC(=O)Oc2cc(C)c(Cl)c(C)c21 (stereo unspecified),–,"inconclusive: 1.26 µM [inhibitor, single point]"
COc1cccc(C(=S)N2CCOCC2)c1OS(=O)(=O)c1ccc(Cl)cc1,inactive: -4.58%,–
CC(=O)NC(=S)Nc1sc2c(c1C(N)=O)CCC(C)C2 (stereo unspecified),–,active: 20 µM
O=C(COC(=O)C1CC2C=CC1C2)NCc1ccco1 (stereo unspecified),inactive: -24.6%,–
Nc1c(C(=O)O)sc2nc(-c3ccc(F)cc3)cc(-c3ccccc3)c12,inactive: -11.1%,–
O=C1COc2ccc(C(=O)COC(=O)c3ncc(Cl)c(Cl)c3Cl)cc2N1,–,"inconclusive: 31.6 µM [inhibitor, single point]"
O=C(/C=C1\NC2(CCCC2)Cc2ccccc21)C(=O)N/N=C/c1ccc(O)c(O)c1,–,"inconclusive: 15.8 µM [inhibitor, partial curve]"
CC(C)C(NC(=O)c1ccc(F)cc1)C(=O)N1CCN(C(=O)c2ccco2)CC1 (stereo unspecified),inactive: -1.44%,–

Structure (SMILES),"activity change, negative = inhibition",Potency
CCCS(=O)(=O)Nc1ccc(N2CCCCC2)c(S(=O)(=O)Nc2ccccc2OC)c1,inactive: -13%,–
Cc1ccc2ccc3ccc(C)nc3c2n1,–,"inconclusive: 39.8 µM [inhibitor, single point]"
COc1cccc(-c2ccc(=O)n(CC(=O)Nc3ccc(S(=O)(=O)NCC(C)C)cc3)n2)c1,–,"inconclusive: 25.1 µM [inhibitor, single point]"
Cc1cc(SCCC(=O)O)nc2c(C)cccc12,–,"inconclusive: 39.8 µM [inhibitor, single point]"
O=[N+]([O-])c1ccc2c(c1)S(=O)(=O)C=C2,–,"inconclusive: 28.2 µM [inhibitor, single point]"
CCOC(=O)c1c(-c2ccc(Cl)cc2)cn2ccccc12,–,"inconclusive: 0.794 µM [inhibitor, full curve, poor fit]"
COc1ccc(N(C(=O)c2snc(C(N)=O)c2N)C(C(=O)NC2CCCCC2)c2ccc(C)o2)cc1 (stereo unspecified),inactive: -10%,–
CC(C)(C)n1nnnc1C(c1cccs1)N1CCN(Cc2ccccc2)CC1 (stereo unspecified),–,"inconclusive: 7.08 µM [inhibitor, single point]"
O=C(Nc1nc2ccccc2n1CCN1CCOCC1)c1cccc([N+](=O)[O-])c1,–,"inconclusive: 31.6 µM [inhibitor, single point]"
COc1ccccc1/C=C/C(=O)OCC(=O)Nc1ccc2c(c1)OCCO2,–,"inconclusive: 39.8 µM [inhibitor, single point]"
COc1ccccc1/C=N/NC(=O)c1ccc(-c2ccccc2)cc1,inactive: -5.21%,–
NS(=O)(=O)c1ccc(N/C=C\C(=O)c2ccncc2)cc1,–,"inconclusive: 7.94 µM [inhibitor, single point]"
O=C(NCc1ccccc1)C(c1ccccc1)N(Cc1ccc2c(c1)OCO2)C(=O)Cc1cccs1 (stereo unspecified),inactive: -6.49%,–
COC(=O)C1C(=O)C2=C(CC1C)NC(=O)CC2c1ccc(F)cc1 (stereo unspecified),inactive: -1.95%,–
CCSc1ncc(Cl)c(C(=O)Nc2nc3ccc(S(C)(=O)=O)cc3s2)n1,inactive: -0.0052%,–
CC(C)(C)c1cc(C(=O)NN)n(Cc2ccc(F)cc2)n1,inactive: -4.77%,–
COc1cc2[nH]c(=O)n(CCCC(=O)N3CC=C(c4ccccc4)CC3)c(=O)c2cc1OC,–,"inconclusive: 28.2 µM [inhibitor, single point]"
Cc1nnc(NC(=O)c2cccc(Br)c2)s1,–,"inconclusive: 35.5 µM [inhibitor, single point]"
CCc1ccc(-c2cc(C(=O)NN3CCOCC3)c3ccccc3n2)s1,–,"inconclusive: 35.5 µM [inhibitor, single point]"
Cn1c(=O)c2c([nH]c(=S)n2CCCc2ccccc2)n(C)c1=O,–,active: 11.2 µM
COC(=O)c1ccc(-c2c(-c3ccccc3)ncc3cc(OC)c(OC)cc23)cc1,–,"inconclusive: 20 µM [inhibitor, partial curve]"
Cc1ccc(C(=O)N/N=c2\sc3ccccc3n2C)cc1,–,"inconclusive: 28.2 µM [inhibitor, single point]"
CCOC(=O)CC1C(=O)NCCN1S(=O)(=O)c1ccccc1Cl (stereo unspecified),–,"inconclusive: 7.08 µM [inhibitor, single point]"

# Laid out differently: entries from further up.
Structure (SMILES)	activity change, negative = inhibition	Potency
Cn1c(=O)c2c([nH]c(=S)n2CCCc2ccccc2)n(C)c1=O	–	active: 11.2 µM
COC(=O)c1ccc(-c2c(-c3ccccc3)ncc3cc(OC)c(OC)cc23)cc1	–	inconclusive: 20 µM [inhibitor, partial curve]
Cc1ccc(C(=O)N/N=c2\sc3ccccc3n2C)cc1	–	inconclusive: 28.2 µM [inhibitor, single point]
